Measured values as given in PubChem BioAssay AID1347076 (National Center for Advancing Translational Sciences (NCATS), 2019).
In all, about 400,000 compounds went through this assay and about 13,000 (3.2%) were called active. The inconclusive results got no clear call from the source; some entries with a clear call stand among them for comparison. The call rests on the fitted dose curve; in most records, active means well fitted cell-killing curve with a large enough effect; inconclusive means small, poorly fitted or top-dose-only effect, or effect the other way; inactive means flat fitted curve, though single readings scatter. Potencies beside an inconclusive call are fits to weak or partial responses and may not hold up.

Assay: qHTS assay for MDR1-selective chemotherapeutics: Primary screen using the drug-selected MDR subline cells KB-V1; further: nearly all actives have a fitted effect of over 60% in size
Details: KB-V1 MDR cells viability, CellTiter-Glo, 72 h; activity change, negative = cytotoxicity: at 46.1 µM (top of the series)
Method in brief: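 In this primary screen, KB-V1 cells overexpressing P-gp are incubated with library compounds (lowest to highest concentration) for 72 h at 37 degrees C before a luminescent ATP viability read.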
On the % scale 0 is the no-effect control and ±100 the full control effect; potency means the concentration at half of the fitted maximal effect.

SMILES	Potency	activity change, negative = cytotoxicity
O=C(Nc1ccccc1F)C1CCCN(S(=O)(=O)c2ccccc2)C1 (stereo unspecified)	inconclusive: 13 µM [cytotoxic, partial curve]	–
CCOC(=O)c1nn(-c2cccc(OC)c2)c2nc(CC)c(C#N)c(=O)n12	inconclusive: 25.9 µM [cytotoxic, single point]	–
CN1CCN(C(=O)c2ccc(NC(=O)c3ccc(Br)o3)cc2)CC1	inconclusive: 8.2 µM [rising, partial curve, poor fit]	–
Cc1c(NC(=O)C2CCCO2)cccc1[N+](=O)[O-] (stereo unspecified)	–	inactive: -11.3%
COc1cccc(/C=C/C(=O)c2c(O)cc(C)oc2=O)c1O	–	inactive: -17.3%
Cc1cc(=O)[nH]c(SCC(=O)NC(C)C2CC3CCC2C3)c1C#N (stereo unspecified)	inconclusive: 20.6 µM [cytotoxic, single point]	–
CC(C)(C)OC(=O)N1CCC(NC(=O)c2[nH]cnc2C(=O)Nc2ccc(Br)cc2F)CC1	inconclusive: 32.6 µM [cytotoxic, single point]	–
CCN(C(=O)Cn1cnc2cc([N+](=O)[O-])ccc2c1=O)C1CCS(=O)(=O)C1 (stereo unspecified)	inconclusive: 29.1 µM [rising, single point]	–
CCc1nc2ccc(C(=O)NCCCN(C)C)cn2c1N(C)Cc1ccc(OC)cc1	inconclusive: 0.013 µM [cytotoxic, full curve, poor fit]	–
COc1ccc(S(=O)(=O)N2CCOC23CCN(S(=O)(=O)c2ccc(F)cc2C)CC3)cc1	inconclusive: 25.9 µM [cytotoxic, single point]	–
N#Cc1ccc(C23CC4(C2)[C@H](CN(Cc2cccnc2)[C@@H]4c2ccccc2)C3c2ccccc2)cc1 (stereo partly specified)	inconclusive: 29.1 µM [cytotoxic, single point]	–
CCc1ccc(C(=O)NNc2cc(Cl)cc(Cl)c2)cc1	inconclusive: 29.1 µM [rising, single point]	–
CCOc1cc(CN2CCCC(N3CCN(c4ccc(F)cc4)CC3)C2)ccc1OC (stereo unspecified)	–	inactive: 1.47%
CSCCC(C(=O)Nc1c(C)cccc1C)N1CCC(Cc2ccccc2)CC1 (stereo unspecified)	inconclusive: 29.1 µM [cytotoxic, single point]	–
COc1ccccc1-c1cc(-c2ccccc2)nc(SC(C(N)=O)c2ccccc2)c1C#N (stereo unspecified)	inconclusive: 9.2 µM [cytotoxic, partial curve]	–
O=[N+]([O-])c1ccc(COc2cccc(CNc3ccc(F)cc3)c2)cc1	active: 20.6 µM	–
CCN(CC(=O)N1CCN(C)CC1)S(=O)(=O)c1ccc(Cl)cc1	inconclusive: 16.4 µM [cytotoxic, partial curve, poor fit]	–
Cc1onc(-c2ccccc2Cl)c1C(=O)OCC(=O)c1ccc2c(c1)OCCO2	inconclusive: 11.6 µM [cytotoxic, partial curve, poor fit]	–
S=C(Nc1ccc2nsnc2c1)N1CCCC1	–	inactive: 22.2%
CCS(=O)(=O)N1CCC(C(=O)N2CCc3ccccc3C2)CC1	active: 13 µM	–
Cc1cc(Cl)ccc1OCC(=O)N[C@@H](Cc1ccccc1)c1nc2ccccc2[nH]1	inconclusive: 3.66 µM [cytotoxic, partial curve, poor fit]	–

Whole records, quoted from the list. Values in the order: Potency	activity change, negative = cytotoxicity
O=C(Nc1ccccc1F)C1CCCN(S(=O)(=O)c2ccccc2)C1 (stereo unspecified) as listed: inconclusive: 13 µM [cytotoxic, partial curve]	–
CN1CCN(C(=O)c2ccc(NC(=O)c3ccc(Br)o3)cc2)CC1 as listed: inconclusive: 8.2 µM [rising, partial curve, poor fit]	–

More compounds follow.

SMILES	Potency	activity change, negative = cytotoxicity
O=C(CN1CCCCCC1)Nc1ccccc1Oc1ccccc1	inconclusive: 9.2 µM [cytotoxic, partial curve]	–
Cc1ccc(SCCNC(=O)c2ccc(C)c(S(=O)(=O)Nc3ccccc3C)c2)cc1	inconclusive: 4.61 µM [cytotoxic, full curve]	–
CCCS(=O)(=O)NC(=O)C1(C)CCN(C(=O)c2cc(OC)c(OC)c(OC)c2)C1 (stereo unspecified)	–	inactive: 4.08%
Cc1ccc(C)c(NS(=O)(=O)c2cc3c4c(c2)CC(=O)N4CCC3)c1	–	inactive: 1.84%
Cn1c2ccccc2c(=O)c2ccc(C#CC3(O)CCCCC3)cc21	inconclusive: 18.4 µM [cytotoxic, single point]	–
Cc1cccc(C(=O)N[C@H](C(=O)Nc2cc(S(=O)(=O)N3CCCCC3)ccc2C)C(C)C)c1	inconclusive: 11.6 µM [cytotoxic, partial curve]	–
Cc1ccc(C(=O)Nc2ccc3c(c2)OCO3)cc1S(=O)(=O)N1CCCC1	inconclusive: 0.651 µM [cytotoxic, full curve]	–
O=C(O)C(Cc1c[nH]c2ccccc12)NS(=O)(=O)c1ccc(F)cc1 (stereo unspecified)	inconclusive: 29.1 µM [rising, single point]	–
CCn1cnc2c1c(=O)n(Cc1ccc(C(=O)OC)cc1)c(=O)n2Cc1ccccc1	inconclusive: 14.6 µM [cytotoxic, partial curve]	–
O=C(CN1C(=O)S/C(=C\c2ccccc2)C1=O)NCCCn1ccnc1	inconclusive: 18.4 µM [rising, partial curve, poor fit]	–
CC(C)(C)NC(=O)C(c1cccnc1)N(C(=O)c1ccc(Cl)nc1)C1CCCC1 (stereo unspecified)	inconclusive: 18.4 µM [cytotoxic, single point]	–
COc1cc(-c2nc3ccc(C)cn3c2NCc2ccccc2)ccc1-c1cccc(Cl)c1	–	inactive: 1.22%
Cc1nc2ccccc2n1C1CCN(CC(=O)NCc2ccc(F)cc2)CC1	inconclusive: 29.1 µM [cytotoxic, single point]	–
COc1ccc(C(=O)c2oc3ccccc3c2NC(=O)c2cc(=O)c3ccc(C)cc3o2)cc1Cl	–	inactive: -1.22%
CCOC(=O)C1CCCN(C(=O)CC(C)c2ccccc2)C1 (stereo unspecified)	inconclusive: 18.4 µM [cytotoxic, single point]	–
COC(=O)[C@]12CCCCC=C1N(Cc1ccc3c(c1)OCO3)C(=O)[C@H](CC(=O)N1CCCC1)C2	inconclusive: 6.51 µM [cytotoxic, partial curve]	–
CSc1nc2nc3c(cc2c(=O)n1-c1ccccc1C)CCCC3	inconclusive: 16.4 µM [cytotoxic, partial curve, poor fit]	–
CN1C(=O)CC2(C)C1=CCc1scnc12 (stereo unspecified)	–	inactive: -4.66%
CCOc1ccc(CNC(=O)c2ccc(Sc3ccc(C)cc3)c(NC(C)=O)c2)cc1	inconclusive: 18.4 µM [cytotoxic, partial curve]	–
CCOC(=O)c1cc2c(c(-c3cccc(-c4cc5ccccc5o4)c3)n1)[C@@H](CCO)N(S(=O)C(C)(C)C)C2 (stereo partly specified)	–	inactive: 0%
